Some of the results follow.
What was measured:
Assay in all cases: log2 fold change, soluble protein after heating vs DMSO (PISA); higher = thermal stabilisation; K562 cells, 10 uM, 30 min; active = over 0.2 and 3.5 SD of the protein, either way, in both replicates (recomputed)
[1] = compound: CC1=C(C=C(C=C1)NC(=O)C2=CC(=CC=C2)C(C)(C)C#N)NC3=CC4=C(C=C3)N=CN(C4=O)C
Outline: (§1)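 K562 cells at 2×10^6 cells/mL were treated for 30 min with 10 μM compound, and aliquots were heated for 3 min over 48°C-58°C before pooling. Extraction used PBS with 0.5% NP-40 at 4°C, and soluble protein was the supernatant after 21,000xg for 90 min, measured by TMTpro 16plex LC-MS/MS with channel sums equalised. Thermal stability values, relative to control samples and from duplicates, are log2 fold changes.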

Sequences of proteins named here, by UniProt entry; tags and fusion partners are left off. A change or cut given only in a name is not applied to a line headed by its entry.
UniProt P14316: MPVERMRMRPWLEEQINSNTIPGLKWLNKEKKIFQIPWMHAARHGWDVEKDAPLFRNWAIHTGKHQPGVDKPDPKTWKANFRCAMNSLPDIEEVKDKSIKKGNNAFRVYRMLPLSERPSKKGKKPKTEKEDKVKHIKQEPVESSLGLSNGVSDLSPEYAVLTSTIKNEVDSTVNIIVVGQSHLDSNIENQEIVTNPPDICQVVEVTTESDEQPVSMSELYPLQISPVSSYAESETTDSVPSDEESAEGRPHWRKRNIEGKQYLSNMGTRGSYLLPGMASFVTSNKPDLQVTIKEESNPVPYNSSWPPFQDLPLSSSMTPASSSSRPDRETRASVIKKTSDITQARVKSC
UniProt Q27J81, whole entry, looked up: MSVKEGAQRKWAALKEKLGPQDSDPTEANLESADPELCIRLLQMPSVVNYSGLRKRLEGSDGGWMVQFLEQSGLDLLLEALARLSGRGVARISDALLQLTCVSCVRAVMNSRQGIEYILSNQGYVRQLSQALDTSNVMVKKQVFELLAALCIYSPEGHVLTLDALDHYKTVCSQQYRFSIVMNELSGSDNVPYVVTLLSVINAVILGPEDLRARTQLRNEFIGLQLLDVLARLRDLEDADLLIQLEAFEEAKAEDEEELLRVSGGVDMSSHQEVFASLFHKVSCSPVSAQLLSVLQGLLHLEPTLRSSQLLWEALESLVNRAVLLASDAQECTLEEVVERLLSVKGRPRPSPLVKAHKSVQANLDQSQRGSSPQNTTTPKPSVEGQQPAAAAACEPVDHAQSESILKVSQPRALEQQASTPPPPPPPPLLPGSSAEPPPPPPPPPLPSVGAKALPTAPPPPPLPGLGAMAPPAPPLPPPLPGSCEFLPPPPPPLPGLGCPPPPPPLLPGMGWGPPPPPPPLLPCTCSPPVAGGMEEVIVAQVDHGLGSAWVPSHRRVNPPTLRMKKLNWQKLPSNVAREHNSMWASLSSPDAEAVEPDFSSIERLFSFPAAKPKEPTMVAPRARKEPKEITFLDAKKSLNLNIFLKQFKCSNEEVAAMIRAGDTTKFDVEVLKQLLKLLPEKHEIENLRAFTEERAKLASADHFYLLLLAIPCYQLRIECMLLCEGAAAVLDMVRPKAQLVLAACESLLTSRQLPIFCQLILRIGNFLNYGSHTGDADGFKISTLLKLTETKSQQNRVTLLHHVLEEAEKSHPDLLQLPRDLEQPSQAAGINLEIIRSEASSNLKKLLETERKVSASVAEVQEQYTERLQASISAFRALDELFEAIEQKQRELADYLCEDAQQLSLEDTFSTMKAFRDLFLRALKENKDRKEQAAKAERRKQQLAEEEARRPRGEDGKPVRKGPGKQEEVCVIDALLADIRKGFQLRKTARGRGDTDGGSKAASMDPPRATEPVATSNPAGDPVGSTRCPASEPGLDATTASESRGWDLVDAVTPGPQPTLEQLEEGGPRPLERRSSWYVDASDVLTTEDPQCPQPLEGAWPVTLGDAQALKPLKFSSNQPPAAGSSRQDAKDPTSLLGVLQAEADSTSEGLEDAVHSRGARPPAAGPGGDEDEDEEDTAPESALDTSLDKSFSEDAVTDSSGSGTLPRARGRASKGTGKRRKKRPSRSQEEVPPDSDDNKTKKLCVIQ
UniProt O15397, whole entry, looked up: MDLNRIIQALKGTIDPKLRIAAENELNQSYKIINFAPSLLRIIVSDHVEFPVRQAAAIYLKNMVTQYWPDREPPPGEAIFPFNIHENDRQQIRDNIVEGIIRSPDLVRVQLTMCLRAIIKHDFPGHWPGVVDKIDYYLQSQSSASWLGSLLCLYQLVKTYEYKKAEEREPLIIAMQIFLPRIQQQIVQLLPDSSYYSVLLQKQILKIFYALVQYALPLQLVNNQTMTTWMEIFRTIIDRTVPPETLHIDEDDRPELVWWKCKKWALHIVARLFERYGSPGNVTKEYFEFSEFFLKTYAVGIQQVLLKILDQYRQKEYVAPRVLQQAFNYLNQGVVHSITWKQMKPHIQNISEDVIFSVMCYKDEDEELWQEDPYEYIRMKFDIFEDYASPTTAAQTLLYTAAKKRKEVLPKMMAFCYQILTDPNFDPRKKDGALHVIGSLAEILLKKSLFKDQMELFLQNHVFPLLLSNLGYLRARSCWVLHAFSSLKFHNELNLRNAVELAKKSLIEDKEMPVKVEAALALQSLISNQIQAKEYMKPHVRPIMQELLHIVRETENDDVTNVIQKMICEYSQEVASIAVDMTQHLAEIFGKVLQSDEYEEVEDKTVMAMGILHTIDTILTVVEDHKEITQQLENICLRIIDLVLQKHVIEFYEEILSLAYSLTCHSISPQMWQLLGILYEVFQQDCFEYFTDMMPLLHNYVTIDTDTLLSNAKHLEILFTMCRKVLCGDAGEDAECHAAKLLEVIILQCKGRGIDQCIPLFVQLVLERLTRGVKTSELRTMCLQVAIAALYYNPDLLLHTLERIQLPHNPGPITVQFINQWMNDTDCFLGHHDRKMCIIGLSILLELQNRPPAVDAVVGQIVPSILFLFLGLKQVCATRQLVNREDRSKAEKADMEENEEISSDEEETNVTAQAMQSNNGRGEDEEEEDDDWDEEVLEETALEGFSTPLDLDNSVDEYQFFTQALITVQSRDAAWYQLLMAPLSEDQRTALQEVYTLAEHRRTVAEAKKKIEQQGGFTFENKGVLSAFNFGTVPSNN
UniProt Q13422: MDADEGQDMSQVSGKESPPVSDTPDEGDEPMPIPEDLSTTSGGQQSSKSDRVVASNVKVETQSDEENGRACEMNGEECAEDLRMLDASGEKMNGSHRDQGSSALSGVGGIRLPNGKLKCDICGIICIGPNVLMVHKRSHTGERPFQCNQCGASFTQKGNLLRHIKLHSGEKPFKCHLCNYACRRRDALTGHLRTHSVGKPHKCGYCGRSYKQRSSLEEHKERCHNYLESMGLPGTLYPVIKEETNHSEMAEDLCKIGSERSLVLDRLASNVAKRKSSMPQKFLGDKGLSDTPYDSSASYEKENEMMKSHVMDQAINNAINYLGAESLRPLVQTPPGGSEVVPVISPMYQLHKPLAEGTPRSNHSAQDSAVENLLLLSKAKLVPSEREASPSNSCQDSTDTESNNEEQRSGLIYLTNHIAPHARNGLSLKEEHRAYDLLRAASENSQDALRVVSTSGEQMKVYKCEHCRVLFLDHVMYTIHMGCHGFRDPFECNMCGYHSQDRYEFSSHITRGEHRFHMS
UniProt Q12906, whole entry, looked up: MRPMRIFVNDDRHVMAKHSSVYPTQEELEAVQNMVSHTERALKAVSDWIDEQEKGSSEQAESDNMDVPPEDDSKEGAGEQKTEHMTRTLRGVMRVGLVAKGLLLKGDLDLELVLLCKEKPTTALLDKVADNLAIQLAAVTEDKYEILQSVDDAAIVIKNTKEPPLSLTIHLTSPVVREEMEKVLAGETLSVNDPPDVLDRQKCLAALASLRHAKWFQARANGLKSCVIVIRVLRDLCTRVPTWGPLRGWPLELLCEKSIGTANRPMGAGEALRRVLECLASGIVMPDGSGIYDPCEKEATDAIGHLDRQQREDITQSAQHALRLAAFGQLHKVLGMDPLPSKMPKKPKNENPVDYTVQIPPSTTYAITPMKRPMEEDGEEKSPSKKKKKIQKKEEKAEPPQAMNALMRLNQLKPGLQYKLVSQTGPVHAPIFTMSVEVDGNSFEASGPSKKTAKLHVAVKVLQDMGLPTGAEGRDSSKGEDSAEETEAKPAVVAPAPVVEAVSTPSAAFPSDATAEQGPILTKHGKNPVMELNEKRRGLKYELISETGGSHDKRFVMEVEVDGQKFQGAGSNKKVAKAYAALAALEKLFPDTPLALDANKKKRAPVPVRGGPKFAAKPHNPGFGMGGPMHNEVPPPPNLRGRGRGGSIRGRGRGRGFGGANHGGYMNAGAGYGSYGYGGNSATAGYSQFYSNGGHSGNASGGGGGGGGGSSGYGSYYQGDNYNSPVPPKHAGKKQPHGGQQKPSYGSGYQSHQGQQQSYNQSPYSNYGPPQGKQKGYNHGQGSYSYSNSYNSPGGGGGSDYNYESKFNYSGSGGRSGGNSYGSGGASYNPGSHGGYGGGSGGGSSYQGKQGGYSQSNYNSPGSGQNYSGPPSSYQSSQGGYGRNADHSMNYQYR
UniProt Q96G21: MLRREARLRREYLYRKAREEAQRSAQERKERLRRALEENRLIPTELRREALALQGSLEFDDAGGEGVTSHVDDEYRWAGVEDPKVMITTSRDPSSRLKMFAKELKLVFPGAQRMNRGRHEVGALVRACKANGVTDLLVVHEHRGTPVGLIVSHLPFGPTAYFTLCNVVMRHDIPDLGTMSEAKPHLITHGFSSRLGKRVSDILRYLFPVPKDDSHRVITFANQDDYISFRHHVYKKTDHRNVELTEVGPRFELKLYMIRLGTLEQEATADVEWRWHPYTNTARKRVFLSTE
UniProt Q8IU81: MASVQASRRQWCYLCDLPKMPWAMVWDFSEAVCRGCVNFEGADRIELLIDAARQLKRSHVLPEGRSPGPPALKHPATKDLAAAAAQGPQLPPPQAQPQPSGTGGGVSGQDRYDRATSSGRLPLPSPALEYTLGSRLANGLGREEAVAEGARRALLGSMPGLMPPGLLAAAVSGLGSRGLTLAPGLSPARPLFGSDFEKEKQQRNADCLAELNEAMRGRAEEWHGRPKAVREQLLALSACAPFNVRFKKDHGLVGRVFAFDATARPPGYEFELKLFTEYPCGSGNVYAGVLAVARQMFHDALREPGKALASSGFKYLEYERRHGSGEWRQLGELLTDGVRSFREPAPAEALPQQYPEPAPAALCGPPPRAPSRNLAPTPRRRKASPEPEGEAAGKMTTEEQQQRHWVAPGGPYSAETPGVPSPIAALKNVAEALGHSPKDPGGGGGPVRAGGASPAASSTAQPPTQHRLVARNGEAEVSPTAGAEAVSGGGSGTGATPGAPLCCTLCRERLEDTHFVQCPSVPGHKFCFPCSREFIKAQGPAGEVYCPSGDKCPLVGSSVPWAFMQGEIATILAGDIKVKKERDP
UniProt P58166: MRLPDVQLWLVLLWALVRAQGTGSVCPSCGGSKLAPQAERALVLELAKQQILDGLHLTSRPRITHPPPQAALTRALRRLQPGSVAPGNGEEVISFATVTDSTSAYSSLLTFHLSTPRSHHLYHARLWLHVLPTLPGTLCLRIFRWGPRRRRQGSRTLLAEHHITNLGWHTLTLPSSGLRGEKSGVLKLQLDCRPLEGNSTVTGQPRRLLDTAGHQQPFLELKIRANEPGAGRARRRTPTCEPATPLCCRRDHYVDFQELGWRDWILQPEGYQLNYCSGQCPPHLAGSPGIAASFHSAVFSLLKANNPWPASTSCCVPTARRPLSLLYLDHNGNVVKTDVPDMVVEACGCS
UniProt Q9UK53: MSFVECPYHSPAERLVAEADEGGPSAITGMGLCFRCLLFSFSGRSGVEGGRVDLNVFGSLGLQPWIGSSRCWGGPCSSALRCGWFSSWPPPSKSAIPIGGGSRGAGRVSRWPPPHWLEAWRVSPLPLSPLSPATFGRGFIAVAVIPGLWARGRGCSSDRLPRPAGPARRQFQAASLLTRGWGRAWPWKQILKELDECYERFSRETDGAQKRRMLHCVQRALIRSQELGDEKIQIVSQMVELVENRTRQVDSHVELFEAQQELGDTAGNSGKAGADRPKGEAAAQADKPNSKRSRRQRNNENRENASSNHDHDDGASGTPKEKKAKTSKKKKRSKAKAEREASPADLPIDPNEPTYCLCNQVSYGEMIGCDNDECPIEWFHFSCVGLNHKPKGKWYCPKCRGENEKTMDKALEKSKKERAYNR
UniProt Q13352: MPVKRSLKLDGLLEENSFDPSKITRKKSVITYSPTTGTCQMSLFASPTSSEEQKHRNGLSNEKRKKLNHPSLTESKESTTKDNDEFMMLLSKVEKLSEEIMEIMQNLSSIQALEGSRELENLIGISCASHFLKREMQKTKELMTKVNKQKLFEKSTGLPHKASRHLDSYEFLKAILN
UniProt Q9NPH3, whole entry, looked up: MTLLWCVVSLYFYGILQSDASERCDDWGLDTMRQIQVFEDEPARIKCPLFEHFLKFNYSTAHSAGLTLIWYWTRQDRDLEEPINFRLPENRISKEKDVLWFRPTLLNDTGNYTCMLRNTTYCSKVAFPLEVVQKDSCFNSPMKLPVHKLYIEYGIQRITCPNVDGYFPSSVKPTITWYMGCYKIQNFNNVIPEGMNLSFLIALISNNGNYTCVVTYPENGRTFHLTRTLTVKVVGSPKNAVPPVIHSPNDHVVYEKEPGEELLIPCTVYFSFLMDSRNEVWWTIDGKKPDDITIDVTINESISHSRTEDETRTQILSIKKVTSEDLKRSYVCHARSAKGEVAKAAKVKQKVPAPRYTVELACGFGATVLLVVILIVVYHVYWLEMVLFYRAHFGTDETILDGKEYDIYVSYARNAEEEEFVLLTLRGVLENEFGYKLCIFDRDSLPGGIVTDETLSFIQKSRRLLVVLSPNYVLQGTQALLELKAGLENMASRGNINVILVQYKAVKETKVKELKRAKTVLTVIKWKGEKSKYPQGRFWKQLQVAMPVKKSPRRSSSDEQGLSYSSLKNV

[2] = compound: CC1=C(C=C(C=C1)NC(=O)C2=CC(=CC=C2)N(C)C)NC(=O)C3=CC=C(C=C3)O
Outline: as §1

[3] = compound: CC1=CC=C(C=C1)SC2=C3C=C(SC3=CN=C2)C(=O)N
Outline: as §1

[4] = compound: CC1=NC(=CC=C1)C2=C(N=C(N2)C(C)(C)C)C3=CC4=NC=CN=C4C=C3
Outline: as §1

vemurafenib = compound: CCCS(=O)(=O)Nc1ccc(F)c(C(=O)c2c[nH]c3ncc(-c4ccc(Cl)cc4)cc23)c1F [vemurafenib]
Outline: as §1

[5] = compound: CCCS(=O)(=O)Nc1ccc(F)c(C(=O)c2c[nH]c3ncc(Cl)cc23)c1F
Outline: as §1

[6] = compound: CCCc1cc(C)[nH]c(=O)c1CNC(=O)c1cc(-c2ccnc(N3CCN(C)CC3)c2)cc2c1cnn2C(C)C
Outline: as §1

givinostat = compound: CCN(CC)Cc1ccc2cc(COC(=O)Nc3ccc(C(=O)NO)cc3)ccc2c1 [givinostat]
Outline: as §1

barasertib = compound: CCN(CCCOc1ccc2c(Nc3cc(CC(=O)Nc4cccc(F)c4)[nH]n3)ncnc2c1)CCOP(=O)(O)O [barasertib]
Outline: as §1

volasertib = compound: CC[C@@H]1C(=O)N(C)c2cnc(Nc3ccc(C(=O)N[C@H]4CC[C@H](N5CCN(CC6CC6)CC5)CC4)cc3OC)nc2N1C(C)C [volasertib]
Outline: as §1

[7] = compound: CC[C@H](C)N1C=C(C2=C(C=C(C=C21)C3=CN=C(C=C3)N4CCNCC4)C(=O)NCC5=C(C=C(NC5=O)C)C)C
Outline: as §1

[8] = compound: CCn1c(C(=O)N(C2CC2)C2CC2)cc2c3c(ncn3C)c(Nc3cc(C)n(C)n3)nc21
Outline: as §1

[9] = compound: CCn1cc(-c2ccnc3[nH]c(-c4cccc(CN(C)C)c4)cc23)c(-c2ccc(NC(=O)N(C)C)cc2)n1
Outline: as §1

[10] = compound: CN(C)CC(=O)Nc1ccc2[nH]c(=O)c3ccccc3c2c1
Outline: as §1

rosiglitazone = compound: CN(CCOC1=CC=C(C=C1)C[C@H]2C(=O)NC(=O)S2)C3=CC=CC=N3 (racemic) [rosiglitazone]
Outline: as §1

[11] = compound: CN1CCC(CNc2ccc3ncc(-c4cccc(OC(F)(F)F)c4)n3n2)CC1
Outline: as §1

Nexturastat A = compound: CCCCN(Cc1ccc(C(=O)NO)cc1)C(=O)Nc1ccccc1 [Nexturastat A]
Outline: as §1

epoxomicin = compound: CC[C@H](C)[C@@H](C(=O)N[C@@H]([C@@H](C)O)C(=O)N[C@@H](CC(C)C)C(=O)[C@]1(CO1)C)NC(=O)[C@H]([C@@H](C)CC)N(C)C(=O)C [epoxomicin]
Outline: as §1

[12] = compound: CN1C2=C(C3=C1C(=O)N(N=C3)CC4=CC(=CC=C4)N)SC(=C2)S(=O)C
Outline: as §1

[13] = compound: CC[C@@H]1C(=O)N(C)c2cnc(Nc3ccc(C(=O)NC4CCN(C)CC4)cc3OC)nc2N1C1CCCC1
Outline: as §1

Measured: log2 fold change

IRF2 (UniProt P14316)
inactive: [1] 0.001 | [2] -0.035 | [3] -0.024 | [4] 0.078 | vemurafenib -0.003 | [5] 0.169 | [6] -0.013 | givinostat -0.006 | barasertib 0.106 | volasertib -0.247 | [7] -0.05 | [8] -0.036 | [9] -0.027 | [10] 0.003 | rosiglitazone 0.031 | [11] -0.015

IL17RA (UniProt Q96F46)
inactive: [1] 0.299 | [6] 0.042

INF2 (UniProt Q27J81)
inactive: [1] -0.073 | [2] -0.002 | [4] -0.14 | Nexturastat A -0.006 | [6] 0.041 | barasertib 0.043 | [7] -0.058 | epoxomicin 0.128 | rosiglitazone 0.057 | [12] 0.363

IPO8 (UniProt O15397)
inactive: [1] -0.105 | [2] 0.028 | [3] 0.01 | [4] -0.104 | Nexturastat A 0.173 | vemurafenib 0.01 | [5] 0.075 | givinostat 0.058 | barasertib 0.106 | [13] 0.069 | volasertib -0.186 | epoxomicin -0.098 | [8] -0.112 | [10] 0.072 | rosiglitazone -0.136 | [12] 0.291

ITM2C (UniProt Q9NQX7)
inactive: [1] 0.096 | [2] 0.004 | [3] 0.187 | Nexturastat A 0.084 | vemurafenib 0.006 | [5] -0.014 | givinostat 0.09 | barasertib 0.057 | volasertib -0.312 | [7] 0.049 | epoxomicin -0.149 | [9] -0.104 | [10] -0.046 | [12] 0.125 | [11] 0.218

IKZF1 isoform 2 (UniProt Q13422)
inactive: [1] 0.141 | [2] -0.068 | vemurafenib 0.095 | [6] -0.002 | givinostat -0.135 | barasertib -0.08 | [7] -0.011 | [10] -0.043

ILF3 (UniProt Q12906)
inactive: [1] 0.106 | [4] -0.177 | Nexturastat A 0.347 | [6] -0.232 | barasertib -0.241 | [13] 0.222 | [7] 0.144 | epoxomicin 0.004

IMP4 (UniProt Q96G21)
inactive: [1] -0.065 | [2] 0.07 | [9] 0.163 | [12] 0.022 | [11] 0.273

IRF2BP1 (UniProt Q8IU81)
inactive: [1] -0.073 | [2] 0.004 | [3] 0.066 | [5] -0.086 | [6] 0.184 | givinostat 0.032 | barasertib 0.102 | [13] -0.06 | volasertib 0.006 | [8] -0.025 | rosiglitazone -0.159 | [12] -0.016

IL10RB (UniProt Q08334)
inactive: [1] 0.19 | [3] -0.012 | [4] -0.17 | Nexturastat A 0.082 | vemurafenib -0.004 | [5] 0.018 | givinostat 0.088 | barasertib 0.063 | [13] 0.045 | volasertib -0.086 | [7] 0.05 | epoxomicin 0.056 | [9] -0.247 | [10] -0.018 | [12] 0.007 | [11] 0.084

INHBE (UniProt P58166)
inactive: [1] -0.065 | vemurafenib 0.039 | [6] 0.144 | givinostat 0.094 | barasertib -0.024 | [13] 0.052 | [8] 0.023 | [10] -0.021 | rosiglitazone -0.158

ING1 (UniProt Q9UK53)
inactive: [1] -0.159 | [4] 0.057 | [6] -0.027 | barasertib 0.121 | [13] 0.078 | rosiglitazone -0.197

IGLL5 (UniProt B9A064)
inactive: [1] -0.095 | [3] 0.091 | [4] -0.04 | [5] -0.204 | [6] -0.388 | barasertib 0.137 | [13] 0.016 | volasertib 0.045 | [7] 0.971 | [9] -0.001 | rosiglitazone -0.057 | [11] -0.144

IKZF1 (UniProt R9R4D9)
inactive: [3] -0.116 | [4] 0.026 | [5] 0.033 | volasertib 0.085 | [9] -0.247 | [12] 0.229 | [11] 0.05

ITGB3BP isoform 5 (UniProt Q13352)
inactive: [2] -0.033 | givinostat -0.116 | [7] 0.039 | [8] 0.075

Taken from the entries so far (2 entries):
INHBE (UniProt P58166)
inactive: [1] -0.065 | vemurafenib 0.039 | [6] 0.144 | givinostat 0.094 | barasertib -0.024 | [13] 0.052 | [8] 0.023 | [10] -0.021 | rosiglitazone -0.158

ING1 (UniProt Q9UK53)
inactive: [1] -0.159 | [4] 0.057 | [6] -0.027 | barasertib 0.121 | [13] 0.078 | rosiglitazone -0.197

(continued)

IMPA1 (UniProt E5RIP7)
inactive: barasertib -0.154 | rosiglitazone 0.011

IL1RAP isoform 5 (UniProt Q9NPH3)
inactive: [2] -0.006 | [3] 0.159 | Nexturastat A 0.049 | vemurafenib -0.04 | [5] -0.291 | barasertib -0.028 | [13] 0.162 | volasertib -0.414 | epoxomicin -0.203 | [9] -0.032 | [10] -0.212 | rosiglitazone 0.159 | [12] 0.14 | [11] -0.253

IQSEC2 (UniProt Q5JU85)
inactive: [3] 0.033 | [5] 0.055 | [6] 0.042 | [13] 0.01 | volasertib -0.208 | [7] -0.197 | [12] 0.222

From the supplement of paper PMC10849652
